Test results from paper PMC12442697.
Results are given in words; binding and its absence hold for the method and conditions named. In cells and extracts the contact can be indirect. Some binding calls cover weakened binding; strength is not graded here.

Sequences of proteins named here, by UniProt entry; tags and fusion partners are left off.
UniProt O70468: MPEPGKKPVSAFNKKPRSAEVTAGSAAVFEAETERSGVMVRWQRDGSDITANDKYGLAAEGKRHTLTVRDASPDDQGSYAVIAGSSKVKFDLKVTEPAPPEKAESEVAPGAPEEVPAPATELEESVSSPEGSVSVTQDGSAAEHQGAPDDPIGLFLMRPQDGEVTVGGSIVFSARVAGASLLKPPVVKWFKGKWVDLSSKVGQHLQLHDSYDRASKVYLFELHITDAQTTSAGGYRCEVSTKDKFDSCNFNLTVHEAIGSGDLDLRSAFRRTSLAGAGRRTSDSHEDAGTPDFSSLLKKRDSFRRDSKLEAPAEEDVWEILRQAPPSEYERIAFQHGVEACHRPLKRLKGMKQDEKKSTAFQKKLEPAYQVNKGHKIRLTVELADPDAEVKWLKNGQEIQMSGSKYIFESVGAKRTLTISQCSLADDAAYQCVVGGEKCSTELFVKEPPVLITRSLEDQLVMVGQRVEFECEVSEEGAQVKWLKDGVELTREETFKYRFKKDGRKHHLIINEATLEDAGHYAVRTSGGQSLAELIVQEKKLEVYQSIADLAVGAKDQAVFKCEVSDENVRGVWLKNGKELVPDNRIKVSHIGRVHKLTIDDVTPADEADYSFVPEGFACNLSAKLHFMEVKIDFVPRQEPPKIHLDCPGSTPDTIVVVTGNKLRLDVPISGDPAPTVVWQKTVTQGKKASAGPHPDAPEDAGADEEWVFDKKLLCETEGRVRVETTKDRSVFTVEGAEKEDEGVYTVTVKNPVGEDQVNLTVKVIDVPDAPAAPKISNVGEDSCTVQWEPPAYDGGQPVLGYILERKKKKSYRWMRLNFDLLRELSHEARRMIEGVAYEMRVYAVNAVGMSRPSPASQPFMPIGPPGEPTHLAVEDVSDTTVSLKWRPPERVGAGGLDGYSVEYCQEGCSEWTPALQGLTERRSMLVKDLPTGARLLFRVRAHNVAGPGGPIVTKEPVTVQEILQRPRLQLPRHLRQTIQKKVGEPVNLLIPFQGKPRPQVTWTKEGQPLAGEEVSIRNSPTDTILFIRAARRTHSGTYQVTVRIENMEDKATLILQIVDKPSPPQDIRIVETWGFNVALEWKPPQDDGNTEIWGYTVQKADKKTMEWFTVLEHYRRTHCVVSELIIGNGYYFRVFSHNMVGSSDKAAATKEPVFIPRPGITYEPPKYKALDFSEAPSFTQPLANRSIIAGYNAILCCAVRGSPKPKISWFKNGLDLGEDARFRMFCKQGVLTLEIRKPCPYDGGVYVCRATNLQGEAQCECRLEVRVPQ

Legend:
[1] = biological target: protein kinase C alpha (PKC‐α) (mouse (endogenous in primary mouse cardiomyocytes)) (UniProt P20444); experiment: co-IP; endogenous proteins; lysate of neonatal mouse ventricular myocytes (pmCMs) in IP lysis buffer with protease/phosphatase inhibitors; 5 µg primary antibody on Protein A+G magnetic beads, 400 µg lysate, 4 °C overnight, washed with TBS; immunoblot; done in both directions
[2] = biological target: myosin‐binding protein‐C (MYBPC3) (mouse (endogenous in primary mouse cardiomyocytes)) (UniProt O70468); experiment: as above

Substance	binding [1]	binding [2]
myosin‐binding protein‐C (MYBPC3) (from UniProt O70468 1-1270)	binds	
protein kinase C alpha (PKC‐α) (from UniProt P20444 1-672) (enzyme)		binds
